Patent publication US5124083A, “3-substituted and 3,3-disubstituted 4-oxoretinoic acids and their esters” (Southern Research Institute, priority 1990, dated 1992)
Some results were stated once for a whole list of compounds, not compound by compound. Some ranges recur; such a range may be that of the whole group of compounds.

tested on: ornithine decarboxylase; assay: Ornithine decarboxylase assay (reduction of TPA-induced ODC activity in mouse skin); format: in vivo; settings: summary of Table III in text
Description: A bioassay in vivo for activity in the prevention of carcinogen-induced cancer is based on the reduction by a retinoid of the amount of ornithine decarboxylase (ODC) induced in mouse skin by the tumor promoter 12-O-tetradecanoylphorbol 13-acetate (TPA). Verma et al. (Cancer Research, Vol. 38, pages 793-801, 1978), reported that "application of the potent tumor-promoting agent 12-O-tetradecanoylphorbol 13-acetate (TPA) to mouse skin leads to a rapid and transient induction of epidermal ornithine decarboxylase activity". They state, further, that "inhibition of this enzyme activity by retinoids may be a simple and rapid in vivo test for assessing the potential prophylactic activity of new synthetic retinoids". All of the tested 4-oxoretinoid analogues reduced TPA-induced ODC activity. The compounds of Examples 2-4, 8, 11, 17, 18, and 20-23 reduced ODC activity to 22-47% of the ODC activity in the control mice and are, therefore, very active in this assay for cancer chemopreventive activity.
Ornithine Decarboxylase Assay
Assays for the reduction by 4-oxoretinoids of ornithine decarboxylase activity induced by 12-O-tetradecanoylphorbol 13-acetate (TPA) were performed by the procedure of Verma et al., Cancer Research, Vol. 38, pages 793-801 (1978).

Row | SMILES | ODC activity as % of the ODC activity in the control mice, summary range
1 | COC(=O)/C=C(C)/C=C/C=C(C)/C=C/C1=C(C)C(=O)C(C)CC1(C)C (stereo not shown) [Example 2, Methyl 3-Methyl-4-oxoretinoate] | 22-47 % of the ODC activity in the control mice
2 | COC(=O)/C=C(C)/C=C/C=C(C)/C=C/C1=C(C)C(=O)C(CC=Cc2ccccc2)CC1(C)C (stereo not shown) [Example 3, Methyl 3-Cinnamyl-4-oxoretinoate] | 22-47 % of the ODC activity in the control mice
3 | CCC1CC(C)(C)C(/C=C/C(C)=C/C=C/C(C)=C/C(=O)OC)=C(C)C1=O (stereo not shown) [Example 4, Methyl 3-Ethyl-4-oxoretinoate] | 22-47 % of the ODC activity in the control mice
4 | C#CCC1CC(C)(C)C(/C=C/C(C)=C/C=C/C(C)=C/C(=O)O)=C(C)C1=O (stereo not shown) [Example 20] | 22-47 % of the ODC activity in the control mice
5 | CC1=C(/C=C/C(C)=C/C=C/C(C)=C/C(=O)O)C(C)(C)CC(Cc2ccccc2)C1=O (stereo not shown) [Example 21] | 22-47 % of the ODC activity in the control mice
6 | CC1=C(/C=C/C(C)=C/C=C/C(C)=C/C(=O)O)C(C)(C)CC(CC=Cc2ccccc2)C1=O (stereo not shown) [Example 22, 3-Cinnamyl-4-oxoretinoic Acid] | 22-47 % of the ODC activity in the control mice
7 | CC1=C(/C=C/C(C)=C/C=C/C(C)=C/C(=O)O)C(C)(C)CC(C)(C)C1=O [Example 23, 3.3-Dimethyl-4-Oxoretinoic Acid] | 22-47 % of the ODC activity in the control mice
